These results are taken from paper PMC6544628, “Plasmodium pseudo-Tyrosine Kinase-like binds PP1 and SERA5 and is exported to host erythrocytes” (Scientific Reports, 2019).

The target in this assay is PfeIf2γ-GST (P. falciparum). As to the kind of experiment: pull-down; both purified.

Results are given in words; binding and its absence hold for the method and conditions named. Tags and fused reporters may be left off the sequences shown.

B1: His6-pTKL_RVxF1 (domain or fragment, UniProt Q8IIT5 391-551)
chain: TNKNIKKGKNIKKEKKKKKEKNIKKEKKKKKKETKKFNNMDKKYIDLAIHKNVKNIQNDTFYNKHENIYNCKNQTNFIYQNDSEIKKIMNKKKVSFEYDNNEEKKKKNIIKFIKNNKSLQNSNGEYYLINHLSKGICSDSIFYKSSQSKSSSQLSSPLSSP
Regarding B1, the binding result is recorded as “no binding (tested: 2 μg)”.

B2: pTKL_KD_WT (domain or fragment, UniProt Q8IIT5 1088-1483)
chain: FHYQHNVLCGAYDNNDNNINDNDIYCNNIYDNNINDNHIYCNNINDNHIYCNNINDNHIYCNNIYDHHKNTSLNSKEQNTDHNIEQINECNKYASETKYNIKKSNLKNNIISHKNFQKCNQIQMNQPYTFPPYQKELSSYLKNEKIKRKRKVLFSYLKTHIHFNSQQINDQHNRLSVQKIMKIITDVTLACTYLEKEKMSPINLKPTNILLDESLNAKISDFGISKIENCLDMNIDYSYKISSNSVIKINKKEYEQKKAKKIKIVNKNNNDLLYLYDHNNNVYKYNTQYIDVTYNNSYPSIFYWTPPEILRGKKNKKFYSDIYAFGIILWEMLSNDIPYNYPFASHIMAVVGYANEELSFNNIPVSIQSLIKACVNRNKYKRPTFEHILKTISTLY
B2: the binding entry is listed as “no binding (tested: 2 μg)”.
